In article PMC9437860 one finds binding data, which are given here for 2 molecules.

Amino acid sequences for entries named in this document (tags omitted).
UniProt P33176: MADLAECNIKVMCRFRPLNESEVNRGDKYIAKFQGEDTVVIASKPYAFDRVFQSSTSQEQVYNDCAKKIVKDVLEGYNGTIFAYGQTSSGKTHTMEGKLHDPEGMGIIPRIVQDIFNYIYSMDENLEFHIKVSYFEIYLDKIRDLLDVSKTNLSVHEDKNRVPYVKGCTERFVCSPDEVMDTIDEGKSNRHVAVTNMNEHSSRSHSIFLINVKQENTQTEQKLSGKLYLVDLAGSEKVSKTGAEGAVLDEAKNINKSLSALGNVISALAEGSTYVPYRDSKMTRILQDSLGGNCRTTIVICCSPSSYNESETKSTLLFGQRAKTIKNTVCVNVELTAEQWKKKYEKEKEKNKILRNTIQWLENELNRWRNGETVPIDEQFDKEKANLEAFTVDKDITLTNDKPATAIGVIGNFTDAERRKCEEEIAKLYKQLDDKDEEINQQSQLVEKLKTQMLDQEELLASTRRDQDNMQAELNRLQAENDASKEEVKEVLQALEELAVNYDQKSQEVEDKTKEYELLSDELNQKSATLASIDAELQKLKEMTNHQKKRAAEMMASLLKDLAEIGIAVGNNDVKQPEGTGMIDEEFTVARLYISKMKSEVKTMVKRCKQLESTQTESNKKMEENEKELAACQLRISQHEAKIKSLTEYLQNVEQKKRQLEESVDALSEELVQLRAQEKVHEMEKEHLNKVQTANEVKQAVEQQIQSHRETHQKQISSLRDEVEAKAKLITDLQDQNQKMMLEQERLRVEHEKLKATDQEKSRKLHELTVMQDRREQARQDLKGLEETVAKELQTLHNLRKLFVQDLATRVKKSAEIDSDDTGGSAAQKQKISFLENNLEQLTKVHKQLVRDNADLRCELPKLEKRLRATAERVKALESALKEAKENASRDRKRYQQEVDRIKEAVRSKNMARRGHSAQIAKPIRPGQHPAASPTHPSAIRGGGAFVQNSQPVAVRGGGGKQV
UniProt Q9NZJ4: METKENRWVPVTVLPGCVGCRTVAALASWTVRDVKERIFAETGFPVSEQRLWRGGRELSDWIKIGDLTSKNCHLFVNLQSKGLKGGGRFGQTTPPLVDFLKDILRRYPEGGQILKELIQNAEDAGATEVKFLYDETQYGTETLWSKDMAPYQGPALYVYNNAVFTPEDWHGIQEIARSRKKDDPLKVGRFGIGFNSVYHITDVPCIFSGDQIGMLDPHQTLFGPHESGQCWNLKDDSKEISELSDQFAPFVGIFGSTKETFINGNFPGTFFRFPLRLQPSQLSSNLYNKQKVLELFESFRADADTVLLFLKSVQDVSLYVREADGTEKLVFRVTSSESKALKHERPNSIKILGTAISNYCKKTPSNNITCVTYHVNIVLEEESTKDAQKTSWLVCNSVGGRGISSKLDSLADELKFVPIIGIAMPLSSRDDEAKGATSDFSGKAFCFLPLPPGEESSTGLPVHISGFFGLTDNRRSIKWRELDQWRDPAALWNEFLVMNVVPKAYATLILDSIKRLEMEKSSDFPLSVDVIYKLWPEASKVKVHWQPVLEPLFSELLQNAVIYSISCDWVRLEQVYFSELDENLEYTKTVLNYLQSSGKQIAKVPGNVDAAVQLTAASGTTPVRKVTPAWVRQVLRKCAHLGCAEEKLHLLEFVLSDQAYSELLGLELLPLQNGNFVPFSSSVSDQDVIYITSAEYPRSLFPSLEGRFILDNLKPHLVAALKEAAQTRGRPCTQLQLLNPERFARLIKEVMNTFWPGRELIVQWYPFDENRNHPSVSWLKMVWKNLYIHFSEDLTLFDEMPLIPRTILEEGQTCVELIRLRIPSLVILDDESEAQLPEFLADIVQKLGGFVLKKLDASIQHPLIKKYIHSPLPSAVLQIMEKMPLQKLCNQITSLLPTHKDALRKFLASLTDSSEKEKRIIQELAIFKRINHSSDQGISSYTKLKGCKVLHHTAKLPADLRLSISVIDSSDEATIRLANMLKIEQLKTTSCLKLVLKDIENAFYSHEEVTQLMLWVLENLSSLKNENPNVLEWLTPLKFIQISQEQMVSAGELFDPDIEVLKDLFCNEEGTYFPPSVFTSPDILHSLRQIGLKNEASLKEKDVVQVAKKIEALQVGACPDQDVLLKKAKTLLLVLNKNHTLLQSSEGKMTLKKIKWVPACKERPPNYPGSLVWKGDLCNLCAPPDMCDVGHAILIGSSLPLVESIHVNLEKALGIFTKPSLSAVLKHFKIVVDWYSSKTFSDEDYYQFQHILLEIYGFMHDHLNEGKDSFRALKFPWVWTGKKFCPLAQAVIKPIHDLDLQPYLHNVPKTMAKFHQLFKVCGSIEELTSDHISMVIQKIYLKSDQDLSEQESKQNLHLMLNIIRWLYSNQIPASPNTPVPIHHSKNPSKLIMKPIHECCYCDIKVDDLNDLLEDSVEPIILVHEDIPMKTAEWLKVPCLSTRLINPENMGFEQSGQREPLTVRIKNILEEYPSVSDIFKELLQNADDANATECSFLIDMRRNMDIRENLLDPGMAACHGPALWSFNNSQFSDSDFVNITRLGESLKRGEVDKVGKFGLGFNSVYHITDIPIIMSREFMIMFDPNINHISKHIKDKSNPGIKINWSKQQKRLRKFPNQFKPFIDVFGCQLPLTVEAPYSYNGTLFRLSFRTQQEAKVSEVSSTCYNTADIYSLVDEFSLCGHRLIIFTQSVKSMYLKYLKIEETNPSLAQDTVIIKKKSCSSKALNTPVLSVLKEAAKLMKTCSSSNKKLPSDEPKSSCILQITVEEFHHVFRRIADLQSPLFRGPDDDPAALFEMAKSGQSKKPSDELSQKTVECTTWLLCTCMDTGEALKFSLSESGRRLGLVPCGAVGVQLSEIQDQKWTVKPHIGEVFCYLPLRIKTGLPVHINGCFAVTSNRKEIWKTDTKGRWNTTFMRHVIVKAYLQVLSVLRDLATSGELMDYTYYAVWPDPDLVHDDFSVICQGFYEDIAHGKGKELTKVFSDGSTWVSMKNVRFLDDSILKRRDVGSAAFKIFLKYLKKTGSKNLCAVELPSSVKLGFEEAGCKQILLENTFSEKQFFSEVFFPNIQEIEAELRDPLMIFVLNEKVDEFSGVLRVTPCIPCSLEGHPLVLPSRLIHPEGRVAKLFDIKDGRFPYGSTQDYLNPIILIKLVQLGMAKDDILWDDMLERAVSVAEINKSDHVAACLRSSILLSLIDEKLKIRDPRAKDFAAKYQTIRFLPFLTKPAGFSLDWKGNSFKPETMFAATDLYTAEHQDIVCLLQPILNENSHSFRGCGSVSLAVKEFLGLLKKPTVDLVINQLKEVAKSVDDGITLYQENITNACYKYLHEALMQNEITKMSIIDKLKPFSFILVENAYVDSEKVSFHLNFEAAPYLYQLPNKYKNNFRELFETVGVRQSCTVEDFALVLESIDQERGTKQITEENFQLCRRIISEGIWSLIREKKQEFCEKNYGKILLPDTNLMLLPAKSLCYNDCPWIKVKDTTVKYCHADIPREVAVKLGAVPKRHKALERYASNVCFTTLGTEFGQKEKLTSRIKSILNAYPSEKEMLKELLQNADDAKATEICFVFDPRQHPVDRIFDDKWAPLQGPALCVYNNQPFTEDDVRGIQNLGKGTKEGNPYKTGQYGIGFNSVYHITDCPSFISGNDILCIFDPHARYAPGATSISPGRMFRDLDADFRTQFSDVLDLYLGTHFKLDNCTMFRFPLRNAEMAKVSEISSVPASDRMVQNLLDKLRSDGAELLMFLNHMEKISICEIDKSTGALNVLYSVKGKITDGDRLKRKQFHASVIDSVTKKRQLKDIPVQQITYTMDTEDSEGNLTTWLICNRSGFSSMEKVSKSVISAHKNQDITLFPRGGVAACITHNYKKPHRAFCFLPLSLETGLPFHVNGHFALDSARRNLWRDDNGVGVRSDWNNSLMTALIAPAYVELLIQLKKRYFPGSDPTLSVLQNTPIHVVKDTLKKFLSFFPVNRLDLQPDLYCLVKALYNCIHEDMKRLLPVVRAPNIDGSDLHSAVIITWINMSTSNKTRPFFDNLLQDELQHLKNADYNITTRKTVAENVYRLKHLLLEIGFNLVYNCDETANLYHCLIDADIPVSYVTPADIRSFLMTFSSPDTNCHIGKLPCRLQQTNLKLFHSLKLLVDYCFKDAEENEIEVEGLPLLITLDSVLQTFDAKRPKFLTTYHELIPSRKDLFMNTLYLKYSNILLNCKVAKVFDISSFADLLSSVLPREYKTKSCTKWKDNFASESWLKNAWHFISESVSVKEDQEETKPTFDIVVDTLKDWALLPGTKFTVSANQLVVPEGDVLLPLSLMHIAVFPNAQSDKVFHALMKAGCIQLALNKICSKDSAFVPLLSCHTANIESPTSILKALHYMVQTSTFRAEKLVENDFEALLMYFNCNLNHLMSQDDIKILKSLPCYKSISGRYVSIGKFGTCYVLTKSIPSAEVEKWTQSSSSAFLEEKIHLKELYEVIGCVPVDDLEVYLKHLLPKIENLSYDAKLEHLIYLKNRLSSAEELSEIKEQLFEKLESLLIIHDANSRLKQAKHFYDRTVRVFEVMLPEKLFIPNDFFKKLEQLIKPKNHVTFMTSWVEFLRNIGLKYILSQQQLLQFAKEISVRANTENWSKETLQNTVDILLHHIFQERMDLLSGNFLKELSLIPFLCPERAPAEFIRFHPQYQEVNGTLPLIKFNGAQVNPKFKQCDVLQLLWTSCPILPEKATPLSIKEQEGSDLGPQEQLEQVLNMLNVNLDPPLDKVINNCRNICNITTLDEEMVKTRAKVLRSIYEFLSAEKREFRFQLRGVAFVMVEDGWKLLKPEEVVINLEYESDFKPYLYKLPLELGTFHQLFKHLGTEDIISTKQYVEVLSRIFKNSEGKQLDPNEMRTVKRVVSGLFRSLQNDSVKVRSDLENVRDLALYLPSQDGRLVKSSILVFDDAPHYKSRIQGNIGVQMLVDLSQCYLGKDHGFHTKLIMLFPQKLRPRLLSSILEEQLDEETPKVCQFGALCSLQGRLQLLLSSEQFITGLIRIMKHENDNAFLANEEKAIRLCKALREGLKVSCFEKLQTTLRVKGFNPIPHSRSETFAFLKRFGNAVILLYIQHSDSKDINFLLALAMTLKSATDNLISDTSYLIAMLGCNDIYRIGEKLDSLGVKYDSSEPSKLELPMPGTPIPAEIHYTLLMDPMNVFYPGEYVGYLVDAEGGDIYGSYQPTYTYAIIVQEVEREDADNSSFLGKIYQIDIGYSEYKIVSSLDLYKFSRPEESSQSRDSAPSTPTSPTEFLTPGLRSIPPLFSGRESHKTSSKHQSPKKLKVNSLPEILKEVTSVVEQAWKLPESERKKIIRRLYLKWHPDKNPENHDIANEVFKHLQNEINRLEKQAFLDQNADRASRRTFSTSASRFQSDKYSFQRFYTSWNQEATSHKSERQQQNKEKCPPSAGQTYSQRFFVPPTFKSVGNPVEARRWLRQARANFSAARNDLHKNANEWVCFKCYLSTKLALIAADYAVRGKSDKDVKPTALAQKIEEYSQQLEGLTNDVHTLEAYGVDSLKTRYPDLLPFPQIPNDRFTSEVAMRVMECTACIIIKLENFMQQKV

Experiment [1] deals with Kinesin-5B-GFP (UniProt P33176). The experiment in a line: co-IP; lysates of HEK-293 cells transfected with Kinesin-5B-GFP or ARL-8-GFP; immunoprecipitation with anti-GFP antibody; blot for endogenous sacsin and GFP.
For experiment [2], the target named is T1, Flag-JIP1 (UniProt Q9WVI9).
T1 sequence: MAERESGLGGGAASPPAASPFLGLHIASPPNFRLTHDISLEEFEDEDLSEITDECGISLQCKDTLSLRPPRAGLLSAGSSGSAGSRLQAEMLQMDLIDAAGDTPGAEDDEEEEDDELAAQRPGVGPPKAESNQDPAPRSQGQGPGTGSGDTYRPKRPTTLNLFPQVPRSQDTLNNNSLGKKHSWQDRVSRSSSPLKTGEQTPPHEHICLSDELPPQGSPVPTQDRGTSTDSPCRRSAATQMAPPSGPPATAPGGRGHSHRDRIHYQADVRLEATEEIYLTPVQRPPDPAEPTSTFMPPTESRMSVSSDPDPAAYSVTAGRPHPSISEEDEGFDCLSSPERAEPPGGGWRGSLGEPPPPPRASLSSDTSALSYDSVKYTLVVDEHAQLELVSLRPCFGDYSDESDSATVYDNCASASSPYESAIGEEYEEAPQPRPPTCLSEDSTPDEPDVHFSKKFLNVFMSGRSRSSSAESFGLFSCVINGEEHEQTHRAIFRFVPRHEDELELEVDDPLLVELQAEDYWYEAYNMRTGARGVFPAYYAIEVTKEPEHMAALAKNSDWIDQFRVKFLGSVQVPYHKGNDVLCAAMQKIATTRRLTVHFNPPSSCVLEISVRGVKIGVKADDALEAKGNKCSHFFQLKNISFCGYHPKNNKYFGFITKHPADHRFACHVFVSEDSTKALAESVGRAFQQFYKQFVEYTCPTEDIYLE
Briefly: co-IP; lysates of HEK-293 cells transfected with Flag-JIP1, 2, 3 or 4; immunoprecipitation with anti-Flag antibody; blot for Flag and endogenous sacsin; lysis buffer 20 mM Hepes, 150 mM NaCl, 1 mM DTT, 1% Triton-X-100.

Experiment [3] deals with T2, Flag-JIP2 (UniProt Q9ERE9).
T2 sequence: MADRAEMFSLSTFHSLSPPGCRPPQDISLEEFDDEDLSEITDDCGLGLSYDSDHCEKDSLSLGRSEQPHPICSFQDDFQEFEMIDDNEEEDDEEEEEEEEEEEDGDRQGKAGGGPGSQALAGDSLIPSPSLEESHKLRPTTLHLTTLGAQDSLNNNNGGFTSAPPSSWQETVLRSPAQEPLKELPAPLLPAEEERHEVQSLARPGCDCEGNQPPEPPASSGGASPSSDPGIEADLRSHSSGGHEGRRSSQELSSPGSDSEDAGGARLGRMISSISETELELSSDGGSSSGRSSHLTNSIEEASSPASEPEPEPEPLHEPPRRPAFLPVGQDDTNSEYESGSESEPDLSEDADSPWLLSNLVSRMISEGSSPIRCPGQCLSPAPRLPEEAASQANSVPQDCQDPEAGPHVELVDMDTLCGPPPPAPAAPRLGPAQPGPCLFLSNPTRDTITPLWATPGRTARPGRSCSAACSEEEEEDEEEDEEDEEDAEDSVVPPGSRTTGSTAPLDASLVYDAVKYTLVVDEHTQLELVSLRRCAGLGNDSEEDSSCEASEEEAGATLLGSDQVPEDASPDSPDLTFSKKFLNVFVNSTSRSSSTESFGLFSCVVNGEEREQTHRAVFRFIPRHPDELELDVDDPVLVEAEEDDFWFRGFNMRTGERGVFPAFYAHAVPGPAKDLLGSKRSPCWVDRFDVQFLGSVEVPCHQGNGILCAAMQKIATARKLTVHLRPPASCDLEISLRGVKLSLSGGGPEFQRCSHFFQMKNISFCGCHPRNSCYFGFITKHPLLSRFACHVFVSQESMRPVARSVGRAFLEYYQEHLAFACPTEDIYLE
The experiment is described as above.

Experiment [4] concerns the target sacsin (endogenous, mouse brain) (mouse (endogenous in mouse brain)) (UniProt Q9JLC8). Briefly: co-IP; mouse brain lysate; immunoprecipitation with sacsin antibody; blot for JIP3 and sacsin.

Results are given in words; binding and its absence hold for the method and conditions named. In cells and extracts the contact can be indirect. Some binding calls cover weakened binding; strength is not graded here. For some of these results: Sequences can lack the tags named with a protein.

Turning to “sacsin (endogenous, HEK-293 cells) (from UniProt Q9NZJ4 1-4579)”, the values for the binding result in experiment [1], in experiment [2] and in experiment [3] were “binds”, “no binding” and “no binding”, respectively.

B1: JIP3 (C-jun-amino-terminal kinase-interacting protein 3), endogenous, mouse brain (protein, UniProt Q9ESN9 1-1337)
chain: MMEIQMDEGGGVVVYQDDYCSGSVMSERVSGLAGSIYREFERLIHCYDEEVVKELMPLVVNVLENLDSVLSENQEHEVELELLREDNEQLLTQYEREKALRKQAEEKFIEFEDALEQEKKELQIQVEHYEFQTRQLELKAKNYADQISRLEERESEMKKEYNALHQRHTEMIQTYVEHIERSKMQQVGGSGQTESSLPGRSRKERPTSLNVFPLADGMVRAQMGGKLVPAGDHWHLSDLGQLQSSSSYQCPNDEMSESGQSSAAATPSTTGTKSNTPTSSVPSAAVTPLNESLQPLGDYVSVTKNNKQAREKRNSRNMEVQVTQEMRNVSIGMGSSDEWSDVQDIIDSTPELDVCPETRLERTGSSPTQGIVNKAFGINTDSLYHELSTAGSEVIGDVDEGADLLGEFSVRDDFFGMGKEVGNLLLENSQLLETKNALNVVKNDLIAKVDQLSGEQEVLKGELEAAKQAKVKLENRIKELEEELKRVKSEAVTARREPREEVEDVSSYLCTELDKIPMAQRRRFTRVEMARVLMERNQYKERLMELQEAVRWTEMIRASREHPSVQEKKKSTIWQFFSRLFSSSSSPPPAKRSYPSVNIHYKSPTAAGFSQRRSHALCQISAGSRPLEFFPDDDCTSSARREQKREQYRQVREHVRNDDGRLQACGWSLPAKYKQLSPNGGQEDTRMKNVPVPVYCRPLVEKDPSTKLWCAAGVNLSGWKPHEEDSSNGPKPVPGRDPLTCDREGEGEPKSTHPSPEKKKAKETPEADATSSRVWILTSTLTTSKVVIIDANQPGTIVDQFTVCNAHVLCISSIPAASDSDYPPGEMFLDSDVNPEDSGADGVLAGITLVGCATRCNVPRSNCSSRGDTPVLDKGQGDVATTANGKVNPSQSTEEATEATEVPDPGPSESEATTVRPGPLTEHVFTDPAPTPSSSTQPASENGSESNGTIVQPQVEPSGELSTTTSSAAPTMWLGAQNGWLYVHSAVANWKKCLHSIKLKDSVLSLVHVKGRVLVALADGTLAIFHRGEDGQWDLSNYHLMDLGHPHHSIRCMAVVNDRVWCGYKNKVHVIQPKTMQIEKSFDAHPRRESQVRQLAWIGDGVWVSIRLDSTLRLYHAHTHQHLQDVDIEPYVSKMLGTGKLGFSFVRITALLIAGNRLWVGTGNGVVISIPLTETVVLHRGQLLGLRANKTSPTSGEGTRPGGIIHVYGDDSSDKAASSFIPYCSMAQAQLCFHGHRDAVKFFVSVPGNVLATLNGSVLDSPSEGPGPAAPAADAEGQKLKNALVLSGGEGYIDFRIGDGEDDETEECAGDVNQTKPSLSKAERSHIIVWQVSYTPE
B1: the binding result in experiment [4] is given as “binds”.
